The record followed here is publication PMC5996148.

Some test systems named below: CCDC5 (human); CCDC82 (human); CCDC83 (human); CCL3 (human); CCL3L3 (human); CCNH (human); CCT2 (human); CCT8 (human); CD244 (human); CD44 antigen (human); CD74 (human); CD9 (human); CDC123 (human); CDC37 (human); CDC42 (human); CDCA4 (human).
Holding throughout (test): protein microarray (ProtoArray v5.0), streptavidin-Alexa Fluor 647
Common to all, as to conditions: 3'-biotin; 20 mM Tris (pH 7.5), 5 mM MgCl2, 100 mM KCl, 0.1% Tween-20, A/T-rich and random oligonucleotide blockers; temperature not stated; high values mean tight binding

A further assay concerns the target T1, CCNF (UniProt P41002).
T1 sequence: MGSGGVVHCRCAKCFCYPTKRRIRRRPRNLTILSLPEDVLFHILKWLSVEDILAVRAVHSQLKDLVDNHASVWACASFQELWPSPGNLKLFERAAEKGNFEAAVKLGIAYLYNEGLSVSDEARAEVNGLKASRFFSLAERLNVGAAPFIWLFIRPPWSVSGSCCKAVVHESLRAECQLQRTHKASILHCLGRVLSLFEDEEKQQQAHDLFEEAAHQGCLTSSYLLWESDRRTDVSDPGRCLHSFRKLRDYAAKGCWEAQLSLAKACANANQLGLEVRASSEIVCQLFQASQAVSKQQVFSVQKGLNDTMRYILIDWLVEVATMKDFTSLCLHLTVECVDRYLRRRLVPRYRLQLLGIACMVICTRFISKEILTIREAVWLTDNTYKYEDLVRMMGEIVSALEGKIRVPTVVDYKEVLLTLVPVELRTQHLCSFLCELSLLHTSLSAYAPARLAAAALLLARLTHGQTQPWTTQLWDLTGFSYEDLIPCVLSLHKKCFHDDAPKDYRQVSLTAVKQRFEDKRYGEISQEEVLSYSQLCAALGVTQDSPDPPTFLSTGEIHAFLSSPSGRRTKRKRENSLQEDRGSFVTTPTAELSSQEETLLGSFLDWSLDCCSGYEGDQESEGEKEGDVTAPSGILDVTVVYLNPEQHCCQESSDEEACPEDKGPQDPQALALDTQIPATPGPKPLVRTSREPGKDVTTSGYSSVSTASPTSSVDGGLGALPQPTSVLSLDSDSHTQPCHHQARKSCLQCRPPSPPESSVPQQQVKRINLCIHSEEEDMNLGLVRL

In another assay the target is T2, CD209 (UniProt Q9NNX6).
T2 sequence: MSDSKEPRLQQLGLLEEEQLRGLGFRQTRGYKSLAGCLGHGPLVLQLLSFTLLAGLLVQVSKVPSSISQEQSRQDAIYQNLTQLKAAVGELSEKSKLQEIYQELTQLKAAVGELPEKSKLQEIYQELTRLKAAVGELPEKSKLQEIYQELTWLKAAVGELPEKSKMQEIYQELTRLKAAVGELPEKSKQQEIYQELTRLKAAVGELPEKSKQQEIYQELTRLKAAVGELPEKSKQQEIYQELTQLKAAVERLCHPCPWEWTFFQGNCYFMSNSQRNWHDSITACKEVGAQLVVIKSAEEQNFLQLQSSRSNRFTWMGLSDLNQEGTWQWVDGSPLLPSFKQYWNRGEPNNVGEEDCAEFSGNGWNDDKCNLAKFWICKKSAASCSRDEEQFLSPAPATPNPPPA

In the next assay the target is T3, CDC40 (UniProt O60508).
T3 sequence: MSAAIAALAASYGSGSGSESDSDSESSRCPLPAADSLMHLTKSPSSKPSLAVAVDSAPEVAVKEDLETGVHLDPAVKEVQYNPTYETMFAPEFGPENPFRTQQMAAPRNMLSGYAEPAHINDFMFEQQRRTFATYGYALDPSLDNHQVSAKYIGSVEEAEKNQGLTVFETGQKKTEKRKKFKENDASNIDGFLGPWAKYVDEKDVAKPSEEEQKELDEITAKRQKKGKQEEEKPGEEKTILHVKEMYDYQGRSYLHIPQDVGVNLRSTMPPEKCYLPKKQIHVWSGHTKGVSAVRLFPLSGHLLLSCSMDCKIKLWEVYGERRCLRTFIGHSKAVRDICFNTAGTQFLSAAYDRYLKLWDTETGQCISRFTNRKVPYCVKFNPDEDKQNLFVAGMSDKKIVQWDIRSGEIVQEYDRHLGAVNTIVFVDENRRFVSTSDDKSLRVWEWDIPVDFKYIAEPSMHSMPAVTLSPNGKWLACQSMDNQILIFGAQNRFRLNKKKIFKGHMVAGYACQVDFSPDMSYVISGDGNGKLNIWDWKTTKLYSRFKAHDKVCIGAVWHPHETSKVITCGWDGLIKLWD

The subject of assay [1] is CDK5 regulatory subunit-associated protein 3 (human).

Where “and” joins values, the source holds several entries; their conditions need not be identical. Equal values may be shown once. This is one part of the list. For some assays here: Construct or isoform of the protein are uncertain.

As for “GGTGACAGGGGTATGGGGAGGGG [G4-2 biotinylated (Ct1)]”, the binding signal was -0.378 z-score in the assay with CCDC5 (human); -0.388 z-score in the assay on CCDC82 (human); -0.369 z-score with CCDC83 (human); -0.375 z-score with CCL3 (human); -0.371 z-score with CCL3L3 (human); -0.379 z-score with CCNF. Moreover, the binding signal with CCNH (human) was -0.389 z-score; with CCT2 (human), -0.373 z-score; in the assay on CCT8 (human), -0.394 z-score and -0.392 z-score; in the assay with CD209, -0.378 z-score; in the assay on CD244 (human), -0.371 z-score; in the assay on CD44 antigen (human) it was -0.382 z-score. In addition, the binding signal with CD74 (human) was -0.389 z-score; with CD9 (human) it was -0.388 z-score; in the assay with CDC123 (human) it was -0.39 z-score; in the assay on CDC37 (human), -0.382 z-score; with CDC40, 3 z-score; in the assay with CDC42 (human), -0.363 z-score. For the same sequence, the binding signal with CDCA4 (human) was -0.392 z-score; in assay [1], -0.41 z-score.
